{"source": "PubChem BioAssay AID1471", "about": "(National Center for Advancing Translational Sciences (NCATS), 2008)", "note": "Among all 230,000 compounds or so, about 310 (0.13%) were called active. The inconclusive results got no clear call from the source; some entries with a clear call stand among them for comparison. The call rests on the fitted dose curve; in most records, active means well fitted activation curve with a large enough effect; inconclusive means small, poorly fitted or top-dose-only effect; inactive means no such curve, though single readings can be large or run the other way. Potencies of inconclusive entries are doubtful fits and often do not repeat. Potency means the concentration at half of the fitted maximal effect.", "data": [{"test": "qHTS Multiplex Assay to Identify Dual Action Probes in a Cell Model of Huntington: Cytoprotection (ATP); further: nearly all actives have a fitted effect of over 45% in size;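 on cytoprotection (ATP increase): toxic huntingtin expression switched on by the ecdysone agonist tebufenozide; % of control where 0% means no effect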", "settings": "PC12 HTT-Q103 induced, ATP luminescence, 40 h; cytoprotection (ATP increase): at 56.4 µM (top of the series) unless noted", "how_it_was_run": "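ATP quantification (ATPlite) reports survival of PC12 cells in which tebufenozide, 100 nM final, switches on Htt exon 1 with 103 glutamines linked to GFP; compounds are titrated.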", "values": [{"smiles": "CCC(SCC(=O)OC)C(=O)Nc1nnc(C(C)C)s1", "note": "(stereo unspecified)", "Potency": "inactive"}, {"smiles": "Cc1cccc(NC2=NCC(=O)N2Cc2ccccc2)c1", "cytoprotection (ATP increase)": "inactive: -10.4% [at 10 µM]"}, {"smiles": "O=C(CSCc1nc2ccccc2[nH]1)N1CCN(c2ccc(F)cc2)CC1", "Potency": "inactive"}, {"smiles": "CC(N)(C(=O)O)c1ccc(P(=O)(O)O)cc1", "note": "(stereo unspecified)", "Potency": "inconclusive: 3980 nM [activator, single point]"}, {"smiles": "O=c1c2ccccc2nc(SCc2ccncc2)n1CC1CCCO1", "note": "(stereo unspecified)", "Potency": "inconclusive: 35500 nM [activator, single point]"}, {"smiles": "CCn1cc(C(=O)O)c(=O)c2cc(F)c(N3CCN(C(=S)NC(=O)c4ccccc4F)CC3)cc21", "Potency": "inconclusive: 5620 nM [activator, single point]"}, {"smiles": "O=C(CN1CCOCC1)Nc1c(Cl)cc(Cl)cc1Cl", "Potency": "inconclusive: 1580 nM [activator, partial curve, poor fit]"}, {"smiles": "Nc1nc2c(ncn2[C@@H]2O[C@H](COP(=O)(O)OP(=O)(O)O)[C@@H](O)[C@H]2O)c(=O)[nH]1", "Potency": "inconclusive: 5620 nM [activator, single point]"}, {"smiles": "O=c1c2cc3c(=O)n(-c4ccccc4O)c(=O)c3cc2c(=O)n1-c1ccccc1O", "Potency": "inconclusive: 5 nM [activator, full curve, poor fit]"}, {"smiles": "CCCCOc1ccc(S(=O)(=O)Nc2cccnc2)cc1", "Potency": "inactive"}, {"smiles": "O=C(ONC1=NCCCCC1)c1c(F)cccc1F", "Potency": "active: 794 nM"}, {"smiles": "Clc1ccc(-c2n[nH]c3c2CCC3)c(Cl)c1", "Potency": "inactive"}, {"smiles": "C=CCNC(=O)/C(C#N)=C/c1ccccc1Cl", "Potency": "inconclusive: 35500 nM [activator, single point]"}, {"smiles": "COc1ccc(NC(=O)CC(NCc2ccccn2)C(=O)O)cc1", "note": "(stereo unspecified)", "cytoprotection (ATP increase)": "inactive: 22.7% [at 10 µM]"}, {"smiles": "CN1CCC(=C2c3ccccc3CC(=O)c3sccc32)CC1", "Potency": "inconclusive: 35500 nM [activator, partial curve, poor fit]"}, {"smiles": "COCCNC(=O)/C(C#N)=C/c1cc(Br)c(O)c(OC)c1", "Potency": "inconclusive: 5.6 nM [activator, full curve, poor fit]"}, {"smiles": "CCOC(=O)c1c(C)c(C#N)c2c3ccccc3ccn12", "Potency": "inconclusive: 6310 nM [activator, single point]"}, {"smiles": "CCOC(=O)C1(Cc2ccc(OC)cc2)CCN(C(=O)c2ccc3[nH]ccc3c2)CC1", "Potency": "inconclusive: 1260 nM [activator, single point]"}, {"smiles": "CCOC(=O)Cc1c[nH]c(=S)[nH]c1=O", "Potency": "inconclusive: 89.1 nM [activator, full curve, poor fit]"}, {"smiles": "Cc1ccc(N(CC(=O)Nc2ccccc2C(=O)NCc2ccco2)S(=O)(=O)c2ccccc2)cc1C", "Potency": "inactive"}, {"smiles": "CC(=O)Nc1ccc(N(C(=O)CNC(=O)c2cccs2)C(C(=O)NC(C)(C)C)c2ccccc2)cc1", "note": "(stereo unspecified)", "Potency": "inconclusive: 3160 nM [activator, partial curve]"}, {"smiles": "C=CCn1c(-c2ccc(OC)cc2)csc1=Nc1c(C)n(C)n(-c2ccccc2)c1=O", "Potency": "inconclusive: 1260 nM [activator, single point]"}, {"smiles": "COC(=O)c1ccc(Cn2c(C)cc(C)[n+]2C)o1", "Potency": "inactive"}, {"smiles": "COc1ccc(S(=O)(=O)N2CCC[C@H]2C(=O)NCc2ccc(Cl)cc2)cc1", "Potency": "inconclusive: 1260 nM [activator, single point]"}, {"smiles": "COCCN(C(=O)CSc1nnc(-c2ccccc2F)n1C)c1c(N)n(Cc2ccccc2)c(=O)[nH]c1=O", "Potency": "inconclusive: 100 nM [activator, full curve, poor fit]"}, {"smiles": "Nc1nc(Nc2cccc(F)c2)nc(NCc2ccco2)c1[N+](=O)[O-]", "cytoprotection (ATP increase)": "inactive: 9% [at 10 µM]"}, {"smiles": "O=C(Cn1c(=O)oc2ccccc21)NCCc1ccccc1Cl", "Potency": "inconclusive: 1260 nM [activator, single point]"}, {"smiles": "Cc1ccsc1/C=C1\\SC(N2CC(C)OC(C)C2)=NC1=O", "note": "(stereo unspecified)", "Potency": "inconclusive: 1120 nM [activator, single point]"}, {"smiles": "O=C(NC1CCN(C(=O)Nc2ccccc2Cl)CC1)c1ccccc1", "Potency": "inconclusive: 89.1 nM [activator, full curve, poor fit]"}, {"smiles": "COc1ccccc1-c1ccc2ncnc(N(C)C)c2c1", "Potency": "inactive"}, {"smiles": "CC1(OC(=O)C2CCCC2)C(=O)C=C2C=C(c3ccsc3)N(CCc3ccccn3)C=C2C1=O", "note": "(stereo unspecified)", "Potency": "inconclusive: 2820 nM [activator, partial curve, poor fit]"}, {"smiles": "O=c1ccc2ccc(O)c(O)c2o1", "Potency": "inconclusive: 794 nM [activator, single point]"}, {"smiles": "N#Cc1cc(C(=O)c2cc(F)ccc2O)cn(-c2nccs2)c1=O", "cytoprotection (ATP increase)": "inactive: 0.0121% [at 10 µM]"}, {"smiles": "Cc1ccc(OCCNc2cc(N3CCN(CCO)CC3)ccc2[N+](=O)[O-])cc1C", "cytoprotection (ATP increase)": "inactive: 4.71% [at 10 µM]"}, {"smiles": "COc1cc(OC)c(C(=O)CCCN2CCCC2)c(OC)c1", "Potency": "inconclusive: 8910 nM [activator, single point]"}, {"smiles": "COC(=O)N1CCC2(CCCN(C(=O)Nc3ccccc3)C2)CC1", "Potency": "inactive"}, {"smiles": "O=C(c1csnn1)N1CCC[C@@]2(CCN(Cc3ccccc3)C2)C1", "Potency": "inconclusive: 35500 nM [activator, single point]"}, {"smiles": "CCOC(=O)c1c(C=O)c(C)n(Cc2ccccc2)c1C", "Potency": "inconclusive: 1260 nM [activator, single point]"}, {"smiles": "O=C(CCCC(=O)NCCc1ccccc1)NCCc1ccccc1", "Potency": "inconclusive: 708 nM [activator, partial curve]"}, {"smiles": "CCOC(=O)N1CCN(C(=S)Nc2cccc(C)c2C)CC1", "Potency": "inconclusive: 1260 nM [activator, single point]"}, {"smiles": "Cc1cc(C)n(S(=O)(=O)/C=C/c2ccccc2)n1", "Potency": "inconclusive: 35500 nM [activator, partial curve, poor fit]"}, {"smiles": "O=S(=O)(CCc1ccccc1)c1nnnn1C1CCCCC1", "Potency": "inconclusive: 11200 nM [activator, partial curve]"}, {"smiles": "COC(=O)CC1C(C)(C)C(OC(C)=O)C2CC3C4CC(=O)OC(c5ccoc5)[C@]4(C)CCC3[C@@]1(C)C2=O", "note": "(stereo partly specified)", "Potency": "inconclusive: 11200 nM [activator, single point]"}, {"smiles": "CCOc1cccc(/C(O)=C2/C(=O)C(=O)N(CCOC)C2c2ccco2)c1", "note": "(stereo unspecified)", "Potency": "inactive"}, {"smiles": "CC(C)CNC(=O)COc1cccc(C(=O)NCc2ccccc2)c1", "Potency": "inconclusive: 891 nM [activator, single point]"}, {"smiles": "COc1cccc(/C(C)=N/NC(=O)c2ccc(N(C)C)cc2)c1", "Potency": "inactive"}, {"smiles": "COC(=O)C1=C(C)N(Cc2ccco2)C(=O)N[C@@H]1c1ccc(Br)cc1", "Potency": "inconclusive: 3550 nM [activator, single point]"}, {"smiles": "Fc1ccc(-c2csc3[n+]2CCS3)cc1", "Potency": "inconclusive: 3160 nM [activator, single point]"}, {"smiles": "CC(=O)N1N=C(c2cccs2)CC1c1cccs1", "note": "(stereo unspecified)", "Potency": "inconclusive: 100 nM [activator, full curve, poor fit]"}, {"smiles": "O=c1cc(Nc2ccc3c(c2)OCCO3)[nH]c(=O)n1C1CCCCC1", "cytoprotection (ATP increase)": "inactive: -11.4% [at 10 µM]"}, {"smiles": "O=C(O)CSCC(=O)Nc1ccc(C(=O)O)cc1", "Potency": "inactive"}, {"smiles": "BrC(=C\\c1ccccc1)/C=N/N1CCN(Cc2ccccc2)CC1", "Potency": "inconclusive: 794 nM [activator, partial curve]"}, {"smiles": "CCNc1ncc2nc(-c3cc(F)cc(F)c3)c(=O)n(Cc3ccc(F)cc3)c2n1", "Potency": "inconclusive: 501 nM [activator, full curve, poor fit]"}, {"smiles": "C[C@@H](c1ccccc1)N1C(=O)[C@H]2[C@H]3[C@H](O)[C@H](O)C/C(=N/OCc4ccccc4)[C@H]3CC[C@@H]2C1=O", "Potency": "inconclusive: 794 nM [activator, partial curve, poor fit]"}, {"smiles": "Cc1cccc(NC(=S)NCc2cccs2)c1C", "Potency": "inconclusive: 3160 nM [activator, full curve, poor fit]"}, {"smiles": "CN(C)CC(c1ccccc1)c1ccccc1", "Potency": "inconclusive: 891 nM [activator, single point]"}, {"smiles": "Cc1oc(/C=N/NC(=O)CC2(C)OCCO2)cc1Br", "cytoprotection (ATP increase)": "inactive: 20.7% [at 10 µM]"}, {"smiles": "CC(C)(Sc1cc(C(C)(C)C)c(O)c(C(C)(C)C)c1)Sc1cc(C(C)(C)C)c(O)c(C(C)(C)C)c1", "Potency": "inconclusive: 2000 nM [activator, partial curve, poor fit]"}, {"smiles": "c1ccc(-c2noc(CCC3CCCC3)n2)cc1", "Potency": "inconclusive: 10000 nM [activator, partial curve]"}, {"smiles": "CC1(C)CC=C(O[Si](C)(c2ccccc2)c2ccccc2)CC1", "Potency": "inconclusive: 3160 nM [activator, single point]"}, {"smiles": "CN1CCc2ccccc2Cc2[nH]c3ccccc3c2CC1", "Potency": "inconclusive: 7940 nM [activator, partial curve]"}, {"smiles": "O=C(/C=C/c1cccc(Br)c1)NCC1CCCCC1", "cytoprotection (ATP increase)": "inactive: -4.78% [at 10 µM]"}, {"smiles": "COC(=O)CC1C2(C)CC34OC5(C)O[C@@]6(C7/C(=C(/O)C(C)C)C(=O)OC(c8ccoc8)[C@]7(C)C(OC(C)=O)C(OC(C)=O)[C@]6(O5)[C@@]13C)C(OC(C)=O)[C@]4(O)C2OC(=O)C(C)C", "note": "(stereo partly specified)", "Potency": "inconclusive: 1260 nM [activator, single point]"}, {"smiles": "CCC/C=C/C(C)O", "note": "(stereo unspecified)", "Potency": "inconclusive: 562 nM [activator, full curve, poor fit]"}, {"smiles": "Cc1cc2cc3c(cc2nc1SCC(=O)Nc1ccccc1)CCC3", "Potency": "inconclusive: 12600 nM [activator, partial curve]"}, {"smiles": "CC1CCC2C(=O)OC(CN=[N+]=[N-])CN2C1c1ccc(Br)cc1", "note": "(stereo unspecified)", "Potency": "inconclusive: 562 nM [activator, partial curve, poor fit]"}]}]}
